{
  "source": "PubChem BioAssay AID590",
  "about": "(National Center for Advancing Translational Sciences (NCATS), 2007)",
  "note": "Several values for one entry are separate records, joined by “and”; a condition that tells them apart may be missing. Equal entries are not always repeated. The whole screen tested about 59,000 compounds, of which about 6,500 (11%) were called active. Inconclusive results, whose numbers are uncertain, are shown with a selection of clear calls. No stated cut-off is given here; in the data, active means max dye-equivalent concentration above about 10 nM; inconclusive means mostly about 1.1 nM to 9.6 nM; inactive means weaker than that.",
  "data": [
    {"assay": "qHTS Assay for Spectroscopic Profiling in A350 Spectral Region", "conditions": "Compound autofluorescence, 340/450 nm, Alexa 350 dye-equivalents; hits give high values", "values": [
      {"smiles": "CSc1ccc(C2C(C#N)=C(N)N(c3ccccc3)C3=C2C(=O)CCC3)cc1", "note": "(stereo not drawn)", "max dye-equivalent concentration": "inconclusive: 3.7e-09 M"},
      {"smiles": "CC(C)(C)NCC(O)c1cc(O)cc(O)c1", "note": "(stereo not drawn)", "max dye-equivalent concentration": "inconclusive: 2.4e-09 M"},
      {"smiles": "N#CC(C(=O)NCc1ccco1)c1nc2ccccc2nc1N1CCOCC1", "note": "(stereo not drawn)", "max dye-equivalent concentration": "inconclusive: 2.8e-09 M"},
      {"smiles": "Cc1oc2ncnc(N)c2c1C", "max dye-equivalent concentration": "active: 2.3e-08 M"},
      {"smiles": "N#Cc1nc(-c2ccco2)oc1N1CCCC1", "max dye-equivalent concentration": "active: 4.9e-08 M"},
      {"smiles": "COc1ccc(-n2nc(C(=O)NCc3ccco3)c3c4ccccc4n(C)c3c2=O)cc1Cl", "max dye-equivalent concentration": "active: 1e-07 M"},
      {"smiles": "COc1ccc(OC)c(NC=C2C(=O)OC(C)(C)OC2=O)c1", "max dye-equivalent concentration": "inconclusive: 8.1e-09 M"},
      {"smiles": "C=CCN1CC2CC3(COc4cc(C)cc(C)c4)C=CC2(O3)C1=O", "note": "(stereo not drawn)", "max dye-equivalent concentration": "inconclusive: 4.7e-09 M"},
      {"smiles": "COCCNc1ccnc(-c2c(C)noc2C)n1", "max dye-equivalent concentration": "inactive"},
      {"smiles": "CSc1ccc(C2C(C#N)=C(N)Oc3cc4c(cc32)OCO4)cc1", "note": "(stereo not drawn)", "max dye-equivalent concentration": "inactive"},
      {"smiles": "CCc1oc2ccccc2c1C(=O)c1cc(Br)c(O)c(Br)c1", "max dye-equivalent concentration": "inconclusive: 1.1e-09 M and inconclusive: 1.9e-09 M", "outcome": "inactive"},
      {"smiles": "O=S(=O)(Nc1ccc2c(c1)OCO2)c1cccs1", "max dye-equivalent concentration": "inactive"},
      {"smiles": "COc1ccc(CCNC(=O)c2ccc(NS(=O)(=O)c3c(C)noc3C)cc2)cc1OC", "max dye-equivalent concentration": "inactive"},
      {"smiles": "CCOC(=O)c1[nH]c2ccc(F)cc2c1N=C(C)N(CC)CC", "max dye-equivalent concentration": "inactive"},
      {"smiles": "COc1ccc(N(Cc2cc3cc(OC)ccc3[nH]c2=O)S(C)(=O)=O)cc1", "max dye-equivalent concentration": "inconclusive: 6.3e-09 M"},
      {"smiles": "Cc1ccc(NC(=O)c2cc(S(=O)(=O)N3CCC4(CC3)OCCO4)ccc2F)cc1", "max dye-equivalent concentration": "inactive"},
      {"smiles": "CN(C)CCNc1ccccn1", "max dye-equivalent concentration": "inactive"},
      {"smiles": "CCCCOc1ccc(-c2c(C#N)c(N)nc(SCC(N)=O)c2C#N)cc1", "max dye-equivalent concentration": "active: 6.1e-08 M"},
      {"smiles": "Cc1ccc(-c2nc3ccccc3c(=O)n2CCCN2CCOCC2)cc1", "max dye-equivalent concentration": "inconclusive: 1.8e-09 M"},
      {"smiles": "CN(C)c1cccc(-c2nnc(SCCCC#N)o2)c1", "max dye-equivalent concentration": "active: 1.7e-08 M"},
      {"smiles": "CCOc1ccc(-c2cc(CCCC(=O)NCCCOC)no2)cc1", "max dye-equivalent concentration": "inconclusive: 2e-09 M"},
      {"smiles": "Cc1cc(Cl)cc(Br)c1OCCCCn1cncn1", "max dye-equivalent concentration": "inconclusive: 1.4e-09 M"},
      {"smiles": "CC(=O)Nc1coc2ccc(Br)cc12", "max dye-equivalent concentration": "inconclusive: 1.7e-09 M"},
      {"smiles": "CCOC(=O)N1CCN(c2cc3[nH]c(=S)[nH]c3cc2F)CC1", "max dye-equivalent concentration": "inactive"},
      {"smiles": "CCSc1nc(-c2ccc(OC)cc2)n(-c2nc3ccccc3s2)n1", "max dye-equivalent concentration": "inactive"},
      {"smiles": "Cc1ccc(C(=O)C2C(c3cccs3)NC(=O)NC2(O)C(F)(F)F)cc1", "note": "(stereo not drawn)", "max dye-equivalent concentration": "inconclusive: 1.4e-09 M"},
      {"smiles": "O=C(Cn1cc(C(=O)C2CC2)c2ccccc21)NCC1CCCO1", "note": "(stereo not drawn)", "max dye-equivalent concentration": "active: 5.7e-08 M"},
      {"smiles": "O=C(O)c1cccnc1C(=O)O", "max dye-equivalent concentration": "inactive"},
      {"smiles": "Cc1ccc(-c2csc3ncnc(-n4nc(C)cc4N)c23)cc1", "max dye-equivalent concentration": "inconclusive: 1.2e-09 M"},
      {"smiles": "CC(=O)n1c2ccccc2c2nc(NC(C)C)sc21", "max dye-equivalent concentration": "inconclusive: 1.6e-09 M"},
      {"smiles": "COc1ccc(OC)c(C(=O)CN2C(=O)NC(C)(c3ccccc3)C2=O)c1", "note": "(stereo not drawn)", "max dye-equivalent concentration": "inconclusive: 7.7e-09 M"},
      {"smiles": "N#Cc1cc2ccccc2nc1SCc1cccnc1", "max dye-equivalent concentration": "inconclusive: 4e-09 M"},
      {"smiles": "CC(=O)c1ccc(-c2nc3ccccc3n2C)o1", "max dye-equivalent concentration": "inconclusive: 2.5e-09 M"},
      {"smiles": "CCc1ccc(Nc2ncc3c(n2)CC(c2ccco2)CC3=O)cc1", "note": "(stereo not drawn)", "max dye-equivalent concentration": "inconclusive: 3.4e-09 M"},
      {"smiles": "COc1ccc2c(Cl)c(-c3nnco3)sc2c1", "max dye-equivalent concentration": "inconclusive: 1.2e-09 M"},
      {"smiles": "N#CNC1=NCN(Cc2ccccc2)CN1", "max dye-equivalent concentration": "inactive"},
      {"smiles": "CC(C)c1cc(NC(=O)C(C)(C)C)cc(C(C)C)c1O", "max dye-equivalent concentration": "inconclusive: 1.6e-09 M"},
      {"smiles": "COC(=O)c1cc(=O)nc2sc(-c3ccccc3)nn12", "max dye-equivalent concentration": "inconclusive: 1.5e-09 M"},
      {"smiles": "CCCCN1C(=O)NC(NC(C)=O)(C(F)(F)F)C1=O", "note": "(stereo not drawn)", "max dye-equivalent concentration": "inconclusive: 1.8e-09 M"},
      {"smiles": "CCn1c(Cc2ccccc2)nnc1SCc1nc2ccccc2c(=O)[nH]1", "max dye-equivalent concentration": "inactive"},
      {"smiles": "COc1ccc2cc(C#N)c(SCC(=O)N3CCCC3)nc2c1", "max dye-equivalent concentration": "active: 1.1e-07 M"},
      {"smiles": "O=C(OCc1nnc(-c2ccccc2)o1)C1=COCCO1", "max dye-equivalent concentration": "inactive"},
      {"smiles": "COc1ccc(-c2nn3c(-c4ccco4)nnc3s2)cc1OC", "max dye-equivalent concentration": "inconclusive: 2.6e-09 M"},
      {"smiles": "Cc1cc(C)nc(-n2nc(C)c3c(=O)[nH]c(C(F)(F)F)nc32)n1", "max dye-equivalent concentration": "inconclusive: 1.7e-09 M"},
      {"smiles": "CC(=O)c1cccc(NC(=O)Nc2ccc(C(=O)N3CCCC3)cc2)c1", "max dye-equivalent concentration": "inconclusive: 3.5e-09 M"},
      {"smiles": "CC(C)(C)OC(=O)N[C@@H](Cc1ccccc1)c1nnc(S(=O)(=O)Cc2ccccc2)o1", "max dye-equivalent concentration": "inactive"},
      {"smiles": "COc1ccc(-c2nc(C#N)c(N3CCCCCC3)o2)cc1", "max dye-equivalent concentration": "active: 5.1e-08 M"},
      {"smiles": "Cn1c(=O)cnc2cnc(Oc3ccccc3)nc21", "max dye-equivalent concentration": "inconclusive: 1.8e-09 M"},
      {"smiles": "COC(=O)c1oc2ccc(OC)cc2c1N", "max dye-equivalent concentration": "active: 1.6e-08 M"},
      {"smiles": "C=CCOc1cccc(C2C(C(=O)c3ccco3)=C(O)C(=O)N2CCN(CC)CC)c1", "note": "(stereo not drawn)", "max dye-equivalent concentration": "inconclusive: 1.2e-09 M"},
      {"smiles": "CC1CCc2[nH]nc(C(=O)O)c2C1", "note": "(stereo not drawn)", "max dye-equivalent concentration": "inconclusive: 2.7e-09 M"},
      {"smiles": "O=S1(=O)C=C(Sc2nc3ccccc3s2)c2ccccc21", "max dye-equivalent concentration": "active: 2e-08 M"},
      {"smiles": "CS(=O)(=O)N1CCCC(C(=O)N2CCc3ccccc3C2)C1", "note": "(stereo not drawn)", "max dye-equivalent concentration": "inconclusive: 1.4e-09 M"},
      {"smiles": "NCC[C@H]1CCC[C@H](CCN)N1", "max dye-equivalent concentration": "inconclusive: 6.3e-09 M"},
      {"smiles": "Cc1cc(-n2nc(C)cc2C)n2ncc(-c3ccccc3)c2n1", "max dye-equivalent concentration": "inactive"},
      {"smiles": "CCN1CCN(C(=O)c2ccccc2N(C)S(=O)(=O)c2ccc(C)cc2)CC1", "max dye-equivalent concentration": "inconclusive: 1.9e-09 M"},
      {"smiles": "c1cn(-c2cc(-c3ccc4c(c3)OCO4)ncn2)cn1", "max dye-equivalent concentration": "active: 3.4e-08 M"},
      {"smiles": "Cc1cc2nc(NC3=NCN(Cc4cccnc4)CN3)nc(C)c2cc1C", "max dye-equivalent concentration": "active: 1.4e-06 M"},
      {"smiles": "Cc1c(NC(=O)c2cc(-n3cnnc3)ccc2Cl)cccc1-c1nc2ccccc2o1", "max dye-equivalent concentration": "inactive"},
      {"smiles": "Cc1occc1-c1nc(-c2ccncc2)no1", "max dye-equivalent concentration": "inconclusive: 1.4e-09 M"},
      {"smiles": "COc1ccc(-c2nc3cnc(N4CCNCC4)nc3n(CCc3ccccc3)c2=O)cc1", "max dye-equivalent concentration": "inconclusive: 7.9e-09 M"},
      {"smiles": "CCOc1cc(C2C(C#N)=C(N)SC(N)=C2C#N)ccc1OCCN1CCOCC1", "max dye-equivalent concentration": "inconclusive: 1.1e-09 M"}
    ]}
  ]
}
